Values from PubChem BioAssay AID686938 (Drosophila RNAi Screening Center, 2013)
Screen: 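Looking for CRAC channel components and the factors controlling them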 (primary screen). Cell system: Drosophila S2R+ cells. Reagents: long dsRNA against Drosophila genes, about 0.25 µg dsRNA per well, roughly 10,000 cells. Time to read-out: 5 days of knock-down before the calcium assay. Challenge: thapsigargin (SERCA pump blocker) to empty calcium stores; entry signal taken 4 min after adding it. Measurement: 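Duplicate raw fluo-4 intensities per well from a plate reader, at rest and four minutes after thapsigargin emptied calcium stores; entry-to-rest ratio filled for only some wells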. Scale: calcium entry signal: higher = stronger calcium signal after store depletion; entry to resting ratio: higher = more calcium entry relative to resting level; resting calcium signal: higher = higher resting calcium signal. Active means: 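Called when the plate z-score of the entry-to-rest ratio, mean of duplicates, falls below −3; wells with low overall dye signal (Fmax z below −2) or more than five off-targets excluded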. Meaning of the calls: active = strongly reduced calcium entry; inactive = no strong reduction.
The screen tested about 23,000 reagents; below is a random part of those that have a named target and a result. In the full data, 75 (0.33%) were called active. 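Raw plate signals without normalisation; calls rest on plate z-scores that were not deposited; ratio present for only 364 wells.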 A plus sign joins genes that one reagent is predicted to hit. Not given: the dose of the treatment.

no.	gene	amplicon	calcium entry signal, replicate 1 (fluorescence units)	calcium entry signal, replicate 2 (fluorescence units)	entry to resting ratio	resting calcium signal, replicate 1 (fluorescence units)	resting calcium signal, replicate 2 (fluorescence units)	outcome
1	Daxx	DRSC03255	4.52e7			2.26e7		inactive
2	firl	DRSC02428	3.36e7	2.08e7		1.56e7	9.86e6	inactive
3	Taf13	DRSC02106	3.61e7	4.49e7		1.92e7	1.96e7	inactive
4	ND1 (retired record)	DRSC21273	3.60e7	4.63e7		2.07e7	1.73e7	inactive
5	lncRNA:CR32658	DRSC19402	3.32e7	4.94e7		1.63e7	2.23e7	inactive
6	CG1537	DRSC19662	3.31e7	5.26e7		1.70e7	2.52e7	inactive
7	CG7099	DRSC03006	4.17e7			2.05e7		inactive
8	Ufl1	DRSC12527	4.55e7	5.58e7		2.00e7	2.54e7	inactive
9	unc	DRSC20511	4.43e7	4.31e7		2.33e7	2.07e7	inactive
10	CG13097	DRSC02199	2.69e7			1.63e7		inactive
11	CG30432	DRSC04833	3.01e7	4.59e7		1.49e7	2.06e7	inactive
12	beat-Vb	DRSC12940	1.77e7	2.76e7		9.09e6	1.21e7	inactive
13	beat-Vb	DRSC14844	4.78e7	2.71e7		1.97e7	1.49e7	inactive
14	beat-Vb	DRSC14845	3.75e7	3.40e7		1.80e7	1.86e7	inactive
15	Nep7	DRSC15830	2.73e7	4.31e7		1.44e7	1.89e7	inactive
16	RpL37A	DRSC02899	2.14e7	2.39e7		1.30e7	1.34e7	inactive
17	Vps16B	DRSC15304	4.22e7	5.66e7		2.14e7	2.46e7	inactive
18	bdwf	DRSC15532	3.33e7	2.85e7		1.52e7	1.32e7	inactive
19	CG13202	DRSC06326	3.02e7	3.47e7		1.57e7	1.78e7	inactive
20	RpL22	DRSC18707	3.98e7	2.37e7	2	1.94e7	1.34e7	inactive
21	RpL22	DRSC22819	1.45e7	1.99e7		9.12e6	1.13e7	inactive
22	CG3397	DRSC15487	2.71e7	4.62e7		1.29e7	1.88e7	inactive
23	Phf5a	DRSC03261	1.49e7	1.67e7		9.71e6	1.03e7	active
24	CG13545	DRSC04187	3.56e7	4.35e7		1.81e7	2.04e7	inactive
25	CG7208	DRSC16212	4.30e7	3.88e7		5.84e7	1.84e7	inactive
26	Art3	DRSC16065	3.28e7	4.35e7		1.52e7	1.81e7	inactive
27	CG43187	DRSC05607	1.72e7	3.77e7		8.07e6	2.25e7	inactive
28	CG13482	DRSC10024	2.46e7	3.39e7		1.17e7	2.47e7	inactive
29	Prp40	DRSC00612	3.14e7			1.91e7		inactive
30	Grp170	DRSC18524	4.00e7	4.07e7		1.91e7	2.02e7	inactive
31	CG5421	DRSC02858	4.22e7	2.66e7		1.88e7	1.30e7	inactive
32	CR31700	DRSC03682	2.86e7	5.61e7		1.38e7	1.99e7	inactive
33	Jhbp15	DRSC15217	3.71e7	4.51e7		5.52e7	1.88e7	inactive
34	CG8483	DRSC16430	4.09e7	4.84e7		1.68e7	2.03e7	inactive
35	CG8854	DRSC07288	4.21e7	4.27e7		1.77e7	1.89e7	inactive
36	CG6974	DRSC16160	3.80e7	4.94e7		1.76e7	5.54e7	inactive
37	CG31493	DRSC12583	4.11e7	4.60e7		1.73e7	1.94e7	inactive
38	SiaT	DRSC04494	4.64e7	3.99e7		2.21e7	1.92e7	inactive
39	Mmp1	DRSC04493	4.68e7	3.98e7		2.49e7	2.15e7	inactive
40	mEFG1	DRSC02758	3.29e7	3.39e7		1.67e7	1.67e7	inactive
41	Mcm5	DRSC16735	3.25e7	3.20e7		1.77e7	1.72e7	inactive
42	CG11698	DRSC14355	3.56e7	1.89e7		1.78e7	1.03e7	inactive
43	Utx	DRSC02872	4.09e7	4.77e7		1.82e7	1.86e7	inactive
44	CR32821 + CR43381 + CR43377 + 1 more	DRSC22544	2.97e7	3.38e7		1.49e7	1.44e7	inactive
45	CG10479	DRSC09733	4.19e7	2.84e7		2.89e7	1.28e7	inactive
46	Wnk	DRSC11813	2.74e7	4.15e7		1.32e7	2.09e7	inactive
47	sqh	DRSC18837	3.25e7	3.13e7		1.68e7	1.66e7	inactive
48	eIF2Bepsilon	DRSC18769	3.06e7	3.34e7		1.38e7	1.56e7	inactive
49	gl	DRSC16957	4.55e7	4.78e7		5.34e7	2.17e7	inactive
50	CG15153	DRSC02454	5.52e7	3.74e7		2.35e7	1.64e7	inactive
51	CG6415	DRSC02954	4.44e7			2.05e7		inactive
52	CG33631	DRSC12763	3.55e7	5.46e7		1.69e7	2.43e7	inactive
53	CG4477	DRSC10425	1.69e7	2.70e7		8.98e6	1.21e7	inactive
54	ocm	DRSC04360	2.30e7			1.25e7		inactive
55	CG8229 + CG33199	DRSC05134	2.44e7	3.50e7		1.22e7	1.42e7	inactive
56	CG5167	DRSC15728	2.99e7	3.30e7		1.53e7	1.78e7	inactive
57	Inx2	DRSC18783	4.04e7	4.52e7		1.95e7	1.91e7	inactive
58	CG6006	DRSC13137	2.44e7	4.23e7		1.17e7	1.99e7	inactive
59	CG6006	DRSC15946	2.98e7	2.18e7		1.34e7	1.06e7	inactive
60	dlp	DRSC10281	3.64e7	2.27e7		2.92e7	1.58e7	inactive
61	dlp	DRSC10472	4.25e7	5.49e7		1.82e7	2.33e7	inactive
62	l(2)k09848	DRSC04894	2.43e7			1.47e7		inactive
63	CG42269	DRSC10670	2.13e7	3.06e7		1.05e7	1.26e7	inactive
64	CG42269	DRSC10672	2.37e7	3.16e7		1.09e7	1.41e7	inactive
65	Ir52b	DRSC06263	3.62e7	3.89e7		2.04e7	1.72e7	inactive
66	wg	DRSC03636	3.58e7	3.27e7		1.78e7	1.56e7	inactive
67	Ho	DRSC14939	2.93e7	3.07e7		1.32e7	1.43e7	inactive
68	CG17919	DRSC12571	3.60e7	4.46e7		1.49e7	1.98e7	inactive
69	Naxe	DRSC18251	3.60e7	4.17e7		1.79e7	1.82e7	inactive
70	CG44836	DRSC09915	3.91e7	7.64e7		2.17e7	3.06e7	inactive
71	CG7218	DRSC16216	3.54e7	3.41e7		1.62e7	1.43e7	inactive
72	CG13230	DRSC06350	1.72e7	3.11e7		1.01e7	1.40e7	inactive
73	MP1	DRSC12124	3.41e7	5.54e7		1.69e7	2.47e7	inactive
74	CG18262	DRSC18149	3.57e7	3.46e7		1.68e7	1.42e7	inactive
75	Jon74E	DRSC10617	4.87e7	7.97e7		2.40e7	3.01e7	inactive
